Results from US20250388687A1.
Numbering of substitutions follows the chain as printed. These are yes or no findings as the source states them, for the method shown. Some binding calls cover weakened binding; strength is not graded here. Blank lines part the entries; values can stand above or below the binder they belong to.

Amino acid sequences for entries named in this document (tags omitted). Residues count along the entry.
UniProt P32927, residues 17-443: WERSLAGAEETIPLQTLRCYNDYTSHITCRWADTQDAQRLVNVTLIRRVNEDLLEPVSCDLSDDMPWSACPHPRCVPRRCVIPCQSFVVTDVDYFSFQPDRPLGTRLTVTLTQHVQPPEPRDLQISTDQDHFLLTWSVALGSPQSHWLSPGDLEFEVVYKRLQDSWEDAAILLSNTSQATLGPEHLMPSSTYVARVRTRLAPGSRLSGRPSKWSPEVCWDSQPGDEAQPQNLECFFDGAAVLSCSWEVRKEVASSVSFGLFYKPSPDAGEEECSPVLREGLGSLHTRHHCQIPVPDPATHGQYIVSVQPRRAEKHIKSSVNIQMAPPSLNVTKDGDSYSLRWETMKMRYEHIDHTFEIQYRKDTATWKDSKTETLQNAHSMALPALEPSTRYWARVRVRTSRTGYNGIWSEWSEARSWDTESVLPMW

Experiments:
[1] = biological target: hCD131-Fc (IME021, in house) (human) (UniProt P32927); assay: flow sorting of B cells of immunised ATX-GL mice stained with fluorescent hCD131-Fc, then single-cell sequencing
[2] = biological target: hCD131-Fc (IME021, in house) (human) (UniProt P32927); assay: B-cell sorting with labelled hEPOR-Fc and hCD131-Fc, double-positive population

B1: anti-CD131 antibody clonotype 14 (Table 6) (antibody, V domains shown)
VH: EVQLVESGGGVVRPGGSLRLSCAASGFTFDDYGMSWVRQAPGKGLEWVSGINWNGGSTGYADSVKGRFTISRDNAKNSLYLQMNSLRAEDTALYYCARERLTIFGVVNYYMDVWGKGTTVTVSS
VL: QSVLTQPPSVSGAPGQRVTISCTGSSSNIGAGYDVHWYQQLPGTAPKLLIYGNSNRPSGVPDRFSGSKSGTSASLAITGLQAEDEADYYCQSYDSSLSGWVFGGGTKLTVL
binding [1]: binds

B4: clonotype 349 (EPOR/CD131 binders, Table 8) (antibody, V domains shown)
VH: EVQLVESGGGLVKPGGSLKLSCAASGFTFSSYSMNWVRQAPGKGLEWVSSISSSSSYIYYADSVKGRFTISRDNAKNSLYLQMNSLRAEDTAVYYCARDGRITMVRGVRNWFDPWGQGTLVTVSS
VL: SYELTQPPSVSVSPGQTANITCSGDKLGNKYACWYQQKPGQSPVLVIFQDNKRPSGIPERFSGSNSGNTATLTIGGTQAMDEADYYCQAWDSSTVVFGGGTKVTVL
binding [2]: binds

B5: anti-CD131 antibody clonotype 25 (Table 6) (antibody, V domains shown)
VH: QVQLVQSGAEVKKPGASVKVSCKASGYTFTSYGISWVRQAPGQGLEWMGWISAYNGNTNYAQKLQGRVTMTTDTSTSTAYMELRSLRSDDTAVYYCARENSGSYYWFDPWGQGTLVTVSS
VL: QSALTQPPSASGSPGQSVTISCTGTSSDVGGYNYVSWYQQHPGKAPKLMIYEVSKRPSGVPDRFSGSKSGNTASLTVSGLQAEDEADYYCSSYAGSNNVVFGGGTKLTVL
binding [1]: binds

B8: anti-CD131 antibody clonotype 116 (Table 6) (antibody, V domains shown)
VH: QVQLVQSGAEAKKPGASVKVSCMASGYTFTTYGISWVRQAPGQGLEWMGWISAYNGNTKYAQKLQGRVTMTTDTSTRTAYMELRSLRSDDTAVYYCARQIGDYWGQGTLVTVSS
VL: B5 VL with S54I, S92A, K106Q
binding [1]: binds

B10: anti-CD131 antibody clonotype 123 (Table 6) (antibody, V domains shown)
VH: EVQLVESGGGLVKPGGSLRLSCAASGFTFSDAWMYWDRQAPGKGLEWVGRIKSKTDGGTTDYAAPVKGRFTISRDDSKNTLYLQMNSLKTEDTAVYYCRADMDVWGKGTTVTVSS
VL: SYELTQPPSVSVSPGQTARITCSGDALPKKYAYWYQQKSGQAPVLVIYEDSKRPSGIPERFSGSSSGTMATLTISGAQVEDEADYYCYSIDSSGNHRVFGGGTKLTVL
binding [1]: binds

B11: clonotype 356 (EPOR/CD131 binders, Table 8) (antibody, V domains shown)
VH: EVQLVESGGGLVQPGGSLRLSCAASGFTFSSYWMSWVRQAPGKGLEWVANIKQDGSEKYYVDSVKGRFTISRDNAKNSLYLQMNSLRAEDTAVYYCARTPGYSSSWYEGPYFDYWGQGTLVTVSS
VL: B10 VL with I90T, R97V
binding [2]: binds

B12: clonotype 365 (EPOR/CD131 binders, Table 8) (antibody, V domains shown)
VH: QVQLVQSGAEVKKPGASVKVSCKASGFTFTSYYIHWVRQAPGQGLEWMGIITPSGGTTSYAQKFQGRVTMTRDTSTSTVYMELSSLRSEDTAVYYCARRVLWFGELRDYFYYMDVWGKGTTVTISS
VL: B10 VL with Y35F, T73I, I90T, R97V
binding [2]: binds

B13: anti-CD131 antibody clonotype 15 (Table 6) (antibody, V domains shown)
VH: EVQLVESGGGLVQPGGSLRLSCAASGFTFSSYSMNWVRQAPGKGLEWVSYISSSSSTIYYADSVKGRFTISRDNAKNSLYLQMNSLRDEDTAVYYCARDGWDYWGQGTLVTVSS
VL: SYELTQPSSVSVSPGQTARITCSGDVLAKKYARWFQQKPGQAPVLVIYKDSERPSGIPERFSGSSSGTTVTLTISGAQVEDEADYYCYSAADNNRVFGGGTKLTVL
binding [1]: binds

B14: anti-CD131 antibody clonotype 8 (Table 6) (antibody, V domains shown)
VH: QLQLQESGPGLVKPSETLSLTCTVSGGSISSSSYYWGWIRQPPGKGLEWIGSIYYSGSTYYNPSLKSRVTISVDTSKNQFSLKLSSVTAADTAVYYCASLTGDRFDYWGQGTLVTVSS
VL: QSALTQPASVSGSPGQSITISCTGTSSDVGGYNYVSWYQQHPGKAPKLMIYEVSNRPSGVSNRFSGSKSGNTASLTISGLQAEDEADYYCSSYTSSSTVVFGGGTKLTVL
binding [1]: binds

B15: clonotype 361 (EPOR/CD131 binders, Table 8) (antibody, V domains shown)
VH: QVQLQQWGAGLLKPSETLSLTCAVYGGFLRGYYWSWIRQPPGKGLEWIGEINHSGSTNYNPSLKSRVTISVDTAENQFSLKLNSVTAADTAVYYCAREGLTGHTFDIWGQGTMVTVSS
VL: B14 VL with E52D, N55K, S91C, T94A, S95G
binding [2]: binds

B16: clonotype 380 (EPOR/CD131 binders, Table 8) (antibody, V domains shown)
VH: QVQLVQSGAEVKKPGASVKVSCKASGYTFITYGISWVRQAPGQGLEWMGWISSYNGNTNYAQKLQGRVTMTRDTSTSTAYMELRSLRSDDTAVYYCARAPGGDCSSTSCYKWNYDPYYFDYWGQGTLVTVSS
VL: B14 VL with Y34H, H41N, E52D, N55K, S91C, T94A, S95G, V99L
binding [2]: binds

B20: clonotype 369 (EPOR/CD131 binders, Table 8) (antibody, V domains shown)
VH: QVQLQQWGAGLLKPSETLSLTCAVYGGSFSGYYWSWIRQPPGKGLEWIGEINHSGNTNYNPSLKSRVTISVDTSKNQFSLKLSSVTAADTAVYYCARGELGIGYWYFDLWGRGTLVTVSS
VL: SSELTQDPAVSVALGQTVRITCQGDSLRSYYASWYQQKPGQAPVLVIYGKNNRPSGIPDRFSGSSSGNTASLTITGAQAEDEADYYCNSRDSSGNHVVFGGGTKLTVL
binding [2]: binds

The next lines start with the values.

binding [2]: binds
B2: clonotype 363 (EPOR/CD131 binders, Table 8) (antibody, V domains shown)
VH: QVQLVQSGAEVKKPGASVKVSCKASGYIFSNYGICWVRQAPGQGLEWMGWINPYNVNRNYAQSLQGRVTMTTDTSTNSAYMELRSLKSDDTAVYFCARGVWGSYRSHSYYTFMDVWGKGTTVTVSS
VL: SYELTQPSSVSVSPGQAARITCSGNLLAKKYPRWFLQKPGQAPIMLTHTDCERPSGIPERFSGSSSGTTVTLTISGAQVEDEADYYCFSAADNTSVFDGGTNLTVL

binding [2]: binds
B3: clonotype 360 (EPOR/CD131 binders, Table 8) (antibody, V domains shown)
VH: QVQLQQWGAGLLKPSETLSLTCAVYGGSFSGHYWNWIRQPPGKGLEWIGEINHSGFTNYNPSLKSRVTISVDTPKNQFPLNLSSVTAADTAVYYCAREGLTGHVFDIWGQGTMVTVSS
VL: QTVVTQEPSLTVSPGGTVTLTCASSTGAVTSGYYPNWFQQKPGQAPRALIYSTSNKHSWTPARFSGSLLGGKAALTLSGVQPEDEAEYYCLLYYGGAQVFGGGTKLTVL

binding [2]: binds
B6: clonotype 366 (EPOR/CD131 binders, Table 8) (antibody, V domains shown)
VH: QMQLQESGPGLVRPSETLSLTCTVSGGSISTRSYYWGWIRQPPGKGLEWIGSVFYSGSTYYNPSLKSRVAISVDTSKNQFSLKVNSVTAADTAVFYCVRQGYDSWTGYSFFYFDYWGQGTLVTVSS
VL: B5 VL with V99L

binding [1]: binds
B7: anti-CD131 antibody clonotype 45 (Table 6) (antibody, V domains shown)
VH: QVQLQQWGAGLLKPSETLSLTCAVYGGSFSGYYWSWIRQPPGKGLEWIGEINHSGSTNYNPSLKSRVTISVDTSKNQFSLKLSSVTAADTAVYYCARTSLAAADFDYWGQGTLVTVSS
VL: B5 VL with V99Y, G103T, L107V

binding [1]: binds
B9: anti-CD131 antibody clonotype 115 (Table 6) (antibody, V domains shown)
VH: EVQLVESGGGLVQPGGSLRLSCAASGFTFSSYDMHWVRQATGKGLEWVSAIGTAGDTYYPGSVKGRFTISRENAKNSLYLQMNSLRAGDTAVYYCARDRTLDYWGQGTLVTVSS
VL: B10 VL with I90T, R97W

binding [1]: binds
B17: anti-CD131 antibody clonotype 52 (Table 6) (antibody, V domains shown)
VH: EVQLVESGGGLVKPGGSLRLSCIASGFTFSTYSMNWVRQAPGKGLEWVSSISGSSSYIYYSDSVKGRFTISRDNAKNSLYLQLNSLRAEDTAVYYCASHWGHFDYWGRGTLVTVSS
VL: SYELTQPLSVSVALGQTARITCGGNNIGSKNVHWYQQKPGQAPVLVIYRDSNRPSGIPERFSGSNSGNTATLTISRAQAGDEADYYCQVWDSSTVVFGGGTKLTVL

binding [2]: binds
B18: clonotype 368 (EPOR/CD131 binders, Table 8) (antibody, V domains shown)
VH: QLQLQESGPGLVKPSETLALTCTVSGGSISSIIYYWGWIRQPPGKGLEWIGNVYYSGSIYYNPSLKSRVTISVDTSKNQFSLKLSSVTAADTAVYYCARQNWGSDAFDIWGQGTMVTVSS
VL: B17 VL with V10L, G24E, K30R, N52D, Y86F, V95A

binding [1]: binds
B19: anti-CD131 antibody clonotype 36 (Table 6) (antibody, V domains shown)
VH: QVQLQQWGAGLLKPSETLSLTCAVYGGSFSGYYWSWIRQPPGKGLEWIGEINHSGSTNYNPSLKSRVTISVDTSKNQFSLKLSSVTAADTAVYYCAREGLLVGATLDAFDIWGQGTMVTVSS
VL: B20 VL with V97L, G101T, L105V

binding [2]: binds
B21: clonotype 364 (EPOR/CD131 binders, Table 8) (antibody, V domains shown)
VH: EVQLVESGGGLVKPGGSLRLSCAASGFTFSSYSMNWVRQAPGKGLEWVSSISSSSSYIYYADSVKGRFTISRDNAKNSLYLQMNSLRAEDTAVYYCARDYRPYYDILTGYSHFDYWGQGTLVTVSS
VL: B20 VL

binding [1]: binds
B22: anti-CD131 antibody clonotype 16 (Table 6) (antibody, V domains shown)
VH: EVQLVESGGGLVQPGGSLKLSCAASGFTFSSSDMHWVRQTTGKGLEWVSAIYTTGDTYYPGSVKGRFTISRENAKNSLYLQMNSLRAGDTAVYYCARGYSGSYYGDFDYWGQGTLVTVSS
VL: SYELTQPPSVSVSPGQTARITCSGDALPKKYAYWYQQKSGQAPVLVIYEDSKRPSGIPERFSGSSSGTMATLTISGAQVEDEADYYCYSTDSSGNRVFGGGTKLTVL
